Our source for the binding values is paper PMC11237466.

Protein sequences, listed by entry. Tags and fused reporters are not part of them.
UniProt P0DTD2: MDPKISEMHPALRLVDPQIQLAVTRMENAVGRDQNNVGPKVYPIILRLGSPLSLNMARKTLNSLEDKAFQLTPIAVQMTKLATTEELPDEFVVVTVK
UniProt Q7Z6Z7: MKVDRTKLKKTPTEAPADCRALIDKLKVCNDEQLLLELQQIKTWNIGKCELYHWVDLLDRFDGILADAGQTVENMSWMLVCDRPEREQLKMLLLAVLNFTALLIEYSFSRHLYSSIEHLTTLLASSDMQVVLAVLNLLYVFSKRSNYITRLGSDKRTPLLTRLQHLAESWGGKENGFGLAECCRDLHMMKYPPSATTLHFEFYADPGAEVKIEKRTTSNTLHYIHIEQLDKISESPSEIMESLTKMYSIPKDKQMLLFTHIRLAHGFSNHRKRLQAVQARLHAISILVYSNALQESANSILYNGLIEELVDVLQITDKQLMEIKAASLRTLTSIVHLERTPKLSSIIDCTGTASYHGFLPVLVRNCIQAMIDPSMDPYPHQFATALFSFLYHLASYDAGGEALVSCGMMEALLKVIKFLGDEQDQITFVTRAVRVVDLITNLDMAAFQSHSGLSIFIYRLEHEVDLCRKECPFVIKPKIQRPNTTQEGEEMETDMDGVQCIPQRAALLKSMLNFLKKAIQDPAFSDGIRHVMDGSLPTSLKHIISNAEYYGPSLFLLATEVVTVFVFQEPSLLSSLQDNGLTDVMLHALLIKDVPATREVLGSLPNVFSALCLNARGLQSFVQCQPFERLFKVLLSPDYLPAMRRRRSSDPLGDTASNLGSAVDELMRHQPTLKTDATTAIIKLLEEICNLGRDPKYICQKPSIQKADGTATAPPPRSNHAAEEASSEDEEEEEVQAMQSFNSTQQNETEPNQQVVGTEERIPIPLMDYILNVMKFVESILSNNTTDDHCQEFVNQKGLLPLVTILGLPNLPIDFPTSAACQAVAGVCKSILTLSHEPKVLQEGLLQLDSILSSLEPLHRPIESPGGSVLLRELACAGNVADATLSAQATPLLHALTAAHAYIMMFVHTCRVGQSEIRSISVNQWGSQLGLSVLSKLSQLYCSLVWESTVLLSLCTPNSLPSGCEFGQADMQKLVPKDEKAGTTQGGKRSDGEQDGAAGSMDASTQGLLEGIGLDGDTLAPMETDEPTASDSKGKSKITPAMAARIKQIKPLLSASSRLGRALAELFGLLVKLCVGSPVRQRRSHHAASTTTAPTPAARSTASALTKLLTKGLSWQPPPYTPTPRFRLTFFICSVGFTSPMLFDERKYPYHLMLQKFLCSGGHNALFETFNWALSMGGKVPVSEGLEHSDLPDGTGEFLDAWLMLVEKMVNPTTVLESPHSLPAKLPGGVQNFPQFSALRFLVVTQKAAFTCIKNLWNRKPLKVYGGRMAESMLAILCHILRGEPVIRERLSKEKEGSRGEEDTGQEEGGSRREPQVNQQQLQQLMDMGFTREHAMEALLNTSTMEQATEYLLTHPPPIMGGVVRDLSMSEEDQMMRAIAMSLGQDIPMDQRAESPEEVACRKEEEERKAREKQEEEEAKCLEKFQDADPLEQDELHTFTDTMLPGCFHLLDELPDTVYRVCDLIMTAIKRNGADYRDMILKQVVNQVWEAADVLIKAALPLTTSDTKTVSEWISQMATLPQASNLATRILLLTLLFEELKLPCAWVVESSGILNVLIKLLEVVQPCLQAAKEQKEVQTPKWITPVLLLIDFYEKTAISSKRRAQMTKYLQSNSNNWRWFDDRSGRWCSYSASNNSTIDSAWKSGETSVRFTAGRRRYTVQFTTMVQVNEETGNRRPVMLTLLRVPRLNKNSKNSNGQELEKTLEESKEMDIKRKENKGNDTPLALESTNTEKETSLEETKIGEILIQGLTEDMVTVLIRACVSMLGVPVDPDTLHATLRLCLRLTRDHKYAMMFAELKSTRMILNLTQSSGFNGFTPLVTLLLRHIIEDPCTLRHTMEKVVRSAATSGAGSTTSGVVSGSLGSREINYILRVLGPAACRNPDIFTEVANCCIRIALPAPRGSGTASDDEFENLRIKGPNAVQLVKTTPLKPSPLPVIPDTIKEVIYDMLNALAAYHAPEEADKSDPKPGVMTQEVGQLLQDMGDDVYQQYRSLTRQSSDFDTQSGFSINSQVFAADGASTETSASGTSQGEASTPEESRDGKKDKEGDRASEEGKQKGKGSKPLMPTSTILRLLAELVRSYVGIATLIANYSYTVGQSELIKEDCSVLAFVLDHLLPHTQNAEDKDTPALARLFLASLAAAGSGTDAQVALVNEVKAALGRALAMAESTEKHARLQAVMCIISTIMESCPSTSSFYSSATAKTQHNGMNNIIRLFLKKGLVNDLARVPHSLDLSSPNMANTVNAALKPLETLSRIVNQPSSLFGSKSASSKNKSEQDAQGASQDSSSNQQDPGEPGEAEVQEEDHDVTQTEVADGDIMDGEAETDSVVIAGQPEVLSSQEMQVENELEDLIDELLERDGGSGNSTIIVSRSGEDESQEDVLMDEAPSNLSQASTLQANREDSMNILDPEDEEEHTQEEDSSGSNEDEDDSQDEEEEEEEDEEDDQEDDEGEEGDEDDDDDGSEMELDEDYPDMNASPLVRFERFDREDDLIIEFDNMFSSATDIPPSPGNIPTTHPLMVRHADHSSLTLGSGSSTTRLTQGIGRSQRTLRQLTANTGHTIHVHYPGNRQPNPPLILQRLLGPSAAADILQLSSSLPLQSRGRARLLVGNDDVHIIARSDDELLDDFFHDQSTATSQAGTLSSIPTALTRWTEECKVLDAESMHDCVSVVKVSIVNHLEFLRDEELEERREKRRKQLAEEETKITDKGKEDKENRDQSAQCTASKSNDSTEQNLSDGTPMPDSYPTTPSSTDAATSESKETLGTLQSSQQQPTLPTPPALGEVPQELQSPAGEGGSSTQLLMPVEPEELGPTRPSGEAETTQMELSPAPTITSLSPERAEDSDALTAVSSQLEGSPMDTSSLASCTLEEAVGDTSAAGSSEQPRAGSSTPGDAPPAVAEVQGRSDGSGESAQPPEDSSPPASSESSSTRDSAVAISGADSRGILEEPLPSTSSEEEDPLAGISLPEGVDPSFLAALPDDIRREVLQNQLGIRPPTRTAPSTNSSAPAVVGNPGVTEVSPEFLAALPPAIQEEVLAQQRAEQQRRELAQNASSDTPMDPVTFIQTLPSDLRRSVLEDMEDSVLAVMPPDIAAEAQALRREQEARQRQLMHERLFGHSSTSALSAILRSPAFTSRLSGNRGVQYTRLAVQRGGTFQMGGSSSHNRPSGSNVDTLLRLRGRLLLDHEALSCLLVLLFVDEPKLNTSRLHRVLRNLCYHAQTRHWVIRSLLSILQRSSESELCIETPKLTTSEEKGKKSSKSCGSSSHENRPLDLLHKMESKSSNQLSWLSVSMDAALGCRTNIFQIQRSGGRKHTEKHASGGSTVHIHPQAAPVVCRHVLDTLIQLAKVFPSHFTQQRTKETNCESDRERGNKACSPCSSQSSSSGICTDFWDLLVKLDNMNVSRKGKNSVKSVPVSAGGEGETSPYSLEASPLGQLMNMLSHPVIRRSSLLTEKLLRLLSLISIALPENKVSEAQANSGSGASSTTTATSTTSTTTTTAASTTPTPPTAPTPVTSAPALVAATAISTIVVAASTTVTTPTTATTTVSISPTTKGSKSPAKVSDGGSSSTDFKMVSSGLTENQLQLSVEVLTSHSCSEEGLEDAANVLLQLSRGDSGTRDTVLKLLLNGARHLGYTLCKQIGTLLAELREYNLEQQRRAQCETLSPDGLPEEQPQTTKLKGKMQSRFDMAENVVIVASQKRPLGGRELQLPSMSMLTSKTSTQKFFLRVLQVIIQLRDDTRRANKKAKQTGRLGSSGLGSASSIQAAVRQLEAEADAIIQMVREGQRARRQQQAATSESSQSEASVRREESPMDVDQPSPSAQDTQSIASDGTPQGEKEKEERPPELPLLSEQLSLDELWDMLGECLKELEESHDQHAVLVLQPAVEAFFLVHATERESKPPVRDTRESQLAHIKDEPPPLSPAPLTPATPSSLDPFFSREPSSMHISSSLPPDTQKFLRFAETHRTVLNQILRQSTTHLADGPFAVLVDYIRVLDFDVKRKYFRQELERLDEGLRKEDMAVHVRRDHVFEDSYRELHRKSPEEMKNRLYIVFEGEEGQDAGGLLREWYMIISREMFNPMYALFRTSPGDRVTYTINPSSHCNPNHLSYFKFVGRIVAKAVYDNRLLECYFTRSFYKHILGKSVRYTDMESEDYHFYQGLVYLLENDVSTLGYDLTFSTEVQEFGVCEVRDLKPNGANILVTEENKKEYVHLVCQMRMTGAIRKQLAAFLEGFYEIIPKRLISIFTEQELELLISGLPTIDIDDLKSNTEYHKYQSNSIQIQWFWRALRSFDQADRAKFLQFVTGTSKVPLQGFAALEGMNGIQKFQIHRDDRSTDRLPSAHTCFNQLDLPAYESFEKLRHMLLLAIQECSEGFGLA

These are yes or no findings as the source states them, for the method shown. In cells and extracts the contact can be indirect. These calls come from enrichment with a bait or labelling near it, and not all partners need be listed.

In this assay the target is SARS-CoV-2 ORF9b-hemagglutinin (ORF9b-HA) (SARS-CoV-2) (UniProt P0DTD2). As to the kind of experiment: affinity purification with mass spectrometry.

Consider “HECT, UBA, and WWE domain-containing E3 ubiquitin protein ligase 1 (HUWE1), endogenous (from UniProt Q7Z6Z7 1-4374) (enzyme)”, for which the binding result is recorded as “binds”.
